The values below come from the supplement of paper PMC12823440, “Inhibitors supercharge kinase turnover through native proteolytic circuits” (Nature, 2025).

Amino acid sequences for entries named in this document (tags omitted).
UniProt Q16620, whole entry, looked up: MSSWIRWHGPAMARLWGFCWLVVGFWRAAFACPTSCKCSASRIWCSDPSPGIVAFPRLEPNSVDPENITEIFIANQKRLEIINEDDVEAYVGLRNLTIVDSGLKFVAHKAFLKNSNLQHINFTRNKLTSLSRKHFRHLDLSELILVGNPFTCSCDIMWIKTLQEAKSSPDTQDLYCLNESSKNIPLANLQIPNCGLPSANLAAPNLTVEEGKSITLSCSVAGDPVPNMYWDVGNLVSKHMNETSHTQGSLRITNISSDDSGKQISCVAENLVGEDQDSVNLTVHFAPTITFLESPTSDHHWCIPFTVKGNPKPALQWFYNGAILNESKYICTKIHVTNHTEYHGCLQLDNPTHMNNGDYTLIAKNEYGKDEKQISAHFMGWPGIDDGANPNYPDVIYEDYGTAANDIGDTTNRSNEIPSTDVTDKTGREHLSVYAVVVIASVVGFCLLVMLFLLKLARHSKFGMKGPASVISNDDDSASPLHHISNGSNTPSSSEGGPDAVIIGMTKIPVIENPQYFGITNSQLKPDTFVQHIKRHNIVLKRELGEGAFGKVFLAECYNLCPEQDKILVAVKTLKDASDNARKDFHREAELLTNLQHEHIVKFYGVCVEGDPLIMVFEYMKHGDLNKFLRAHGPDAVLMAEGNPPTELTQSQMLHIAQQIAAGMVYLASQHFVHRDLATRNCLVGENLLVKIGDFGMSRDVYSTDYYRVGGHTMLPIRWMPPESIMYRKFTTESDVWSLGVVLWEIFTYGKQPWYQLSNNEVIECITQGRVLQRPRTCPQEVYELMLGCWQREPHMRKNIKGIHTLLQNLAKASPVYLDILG

SMILES strings stand for the structures. Counter-ions that a name gives are not always drawn. The list shows a part of the results. Hit calls seldom repeat between salt and free forms of one compound.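 Kinases, fused to nanoluciferase, were expressed in K562 cells; luminescence was measured every 4 h from 2 to 18 h as percent of control (DMSO = 100%, positive control = 0%). A time point is decreased if signal falls significantly (2 sigma). Hits were called by the authors by a rule that is not shown; the count of time points alone does not decide it.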

The experiment deals with NTRK2 (UniProt Q16620). In words: number of time points (of 5) at which kinase-Nluc abundance scored as decreased, DMSO-normalised (count); higher = more persistent destabilization. Conditions: K562; 2-18 h.
In the case of `Clc1ccc(C(c2ccc(Cl)cc2)[n+]2ccn(CC(OCc3ccc(Cl)cc3Cl)c3ccc(Cl)cc3Cl)c2)cc1` (configuration not stated) [Calmidazolium chloride] (2.5 µM), the “number of time points” value was found to be 0.
With `O=C(Nc1cccnc1)c1cc(-c2ccnc(F)c2)ccc1OCc1ccccc1` (10 µM), the “number of time points” value came out at 0.
With `c1nn(C2CCOCC2)cc1Nc1ncc2nnn(-c3ccc4cn[nH]c4c3)c2n1` (10 µM), the “number of time points” value came to 0.
Consider `COC(=O)[C@H](CCSC)NC(=O)c1ccc(NC[C@@H](N)CS)cc1-c1ccccc1` [FTI-277 (hydrochloride)] (10 µM), for which the “number of time points” value was determined as 0.
To `Cc1cc(Nc2cc(N)ncn2)c(=O)n2c1C(=O)NC21CCCCC1` [Tomivosertib] (10 µM) belongs 0.
The figure for `CCc1c[nH]c2ncnc(N3CC[C@](N)(CNC(=O)c4ccc(F)cc4F)C3)c12` (10 µM) is 0.
On to `Nc1ncnc2c1nc(Br)n2[C@@H]1O[C@@H]2COP(=O)(O)O[C@H]2[C@H]1O` [8-Bromo-cAMP sodium salt] (10 µM), for which the “number of time points” value stood at 0.
The figure for `CC(C)n1c(=O)n(C)c2cnc3cc(F)c(-c4ccc(OCCCN5CCCCC5)nc4)cc3c21` (10 µM) is 0.
Regarding `Cc1ccc(C)c(OCCn2cc(C(=O)O)c3ccccc32)c1` (10 µM), the “number of time points” value was 0.
Consider `COCCOc1ccc2c(c1)ncn2-c1ccc2cccc(N3CCC(N)CC3)c2n1` (10 µM), for which the “number of time points” value is 1.
Turning to `CC(C)=CCC/C(C)=C/CC/C(C)=C/C=C/C(C)=C/C(=O)O` [Peretinoin] (10 µM), the “number of time points” value was determined as 0.
In the case of `C=CC(=O)N1CC[C@@H](Oc2nc(Nc3ccc(N4CCC(N5CCN(C)CC5)CC4)cc3)c(C(N)=O)nc2CC)C1` [Naquotinib (mesylate)] (2.5 µM), the “number of time points” value was 0.
